PubChem BioAssay AID686938 | Drosophila RNAi Screening Center – 2013
In all, the deposit lists about 23,000 reagents; shown is a random part of those that have a named target and a result. Over the whole deposit, 75 (0.33%) got an active call. 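Raw plate signals without normalisation; calls rest on plate z-scores that were not deposited; ratio present for only 364 wells.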 Unmarked entries are inactive. Names joined by + are all predicted targets of the reagent. Reagent sequences are not shown. The record does not give: the dose of the treatment.

- Aim: 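Knock-downs reducing store-operated calcium influx in Drosophila cells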 (primary screen)
- System: Drosophila S2R+ cells
- Reagents: long dsRNA against Drosophila genes, about 0.25 µg dsRNA per well, roughly 10,000 cells
- Duration: 5 days of knock-down before the calcium assay
- Conditions: thapsigargin (SERCA pump blocker) to empty calcium stores; entry signal taken 4 min after adding it
- Measurement: 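Per-well fluo-4 fluorescence in two replicates, unnormalised, measured in resting cells and 4 min after store depletion by the SERCA blocker thapsigargin; ratio of the two present in few wells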
- Scale: calcium entry signal: higher = stronger calcium signal after store depletion; resting calcium signal: higher = higher resting calcium signal
- Active means: 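Called when the plate z-score of the entry-to-rest ratio, mean of duplicates, falls below −3; wells with low overall dye signal (Fmax z below −2) or more than five off-targets excluded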
- Meaning of the calls: active = strongly reduced calcium entry; inactive = no strong reduction

calcium entry signal, replicate 1 (fluorescence units)	calcium entry signal, replicate 2 (fluorescence units)	resting calcium signal, replicate 1 (fluorescence units)	resting calcium signal, replicate 2 (fluorescence units)	gene knocked down	amplicon
3.81e7	3.34e7	1.72e7	1.44e7	Sil1	DRSC14242
3.71e7	3.34e7	1.81e7	1.61e7	CG9150	DRSC03148
1.99e7	3.92e7	1.25e7	1.73e7	Sarm	DRSC08906
2.51e7	4.07e7	1.52e7	1.72e7	Sarm	DRSC08907
3.35e7	4.54e7	1.56e7	1.91e7	Sarm	DRSC10038
3.53e7	4.03e7	1.79e7	1.89e7	Sarm	DRSC10039
3.21e7	3.95e7	1.57e7	1.65e7	Sarm	DRSC10927
5.06e7	4.74e7	3.46e7	1.91e7	Sarm	DRSC10929
3.78e7	3.82e7	2.08e7	1.94e7	CG13898	DRSC08368
3.00e7	2.67e7	1.67e7	1.33e7	Ada3	DRSC20321
3.27e7	3.13e7	1.72e7	1.38e7	Ada3	DRSC20322
3.70e7	3.65e7	1.96e7	1.79e7	Ugt37B1	DRSC03225
4.43e7	4.69e7	2.07e7	1.85e7	tilB	DRSC20634
4.81e7	4.22e7	2.28e7	1.88e7	CG13631	DRSC14632
2.95e7	3.06e7	1.34e7	1.31e7	CG13631	DRSC23168
2.98e7	3.80e7	1.49e7	1.56e7	Dhpr	DRSC11135
2.98e7	3.79e7	1.57e7	1.93e7	CG32576	DRSC19136
4.39e7	3.84e7	1.75e7	2.00e7	CG15083	DRSC06514
5.47e7	3.75e7	2.71e7	1.87e7	GCS2alpha	DRSC21036
3.41e7	3.74e7	1.68e7	1.76e7	CR32733	DRSC17481
3.18e7	4.03e7	1.51e7	1.71e7	eIF2Balpha	DRSC16332
3.75e7	3.12e7	2.05e7	1.46e7	betaNACtes6	DRSC22925
3.21e7	4.64e7	1.65e7	2.05e7	Mst77F	DRSC11871
2.44e7	3.50e7	1.22e7	1.42e7	CG8229 + CG33199	DRSC05134
3.27e7	4.02e7	1.82e7	1.85e7	NLaz	DRSC21521
2.79e7	4.56e7	1.57e7	2.16e7	osp	DRSC01409
4.79e7		2.18e7		osp	DRSC03585
3.19e7	3.18e7	1.44e7	1.40e7	spt4	DRSC07696
2.90e7	4.11e7	1.38e7	4.72e7	yellow-e3	DRSC15170
9.88e6	1.28e7	7.23e6	7.96e6	SmD1	DRSC09800
4.44e7	5.62e7	2.30e7	2.49e7	CG34223	DRSC05268
4.44e7	4.99e7	1.98e7	2.32e7	gb	DRSC15961
3.72e7	5.27e7	1.65e7	2.13e7	CG32944	DRSC12138
3.13e7	5.94e7	1.45e7	2.16e7	CG32944	DRSC12341
4.15e7	4.97e7	2.09e7	2.27e7	Bhmt	DRSC02079
2.68e7	2.55e7	1.42e7	1.24e7	mdlc	DRSC15690
3.57e7	2.88e7	1.62e7	1.35e7	gish	DRSC16154
2.98e7	3.53e7	1.56e7	1.60e7	Or47b	DRSC07492
2.75e7	3.31e7	1.47e7	1.80e7	Rpn5	DRSC12367
5.45e7	5.08e7	2.24e7	2.15e7	CG30103	DRSC06894

An excerpt from above, showing only “resting calcium signal, replicate 1 (fluorescence units)”.
Bhmt [DRSC02079]: 2.09e7
mdlc [DRSC15690]: 1.42e7
